Measurements reported in patent US20090036437A1, “PHARMACEUTICAL COMPOSITION COMPRISING PHENOXAZINIUM COMPOUND AS AN ACTIVE INGREDIENT” (priority 2005, published 2009).

How the values were obtained:
Type in all cases: cell-based
[1] = system: Plasmodium Falciparum K1 strain; assay: in vitro growth-inhibiting screening assay, chloroquine-resistant falciparum malaria; conditions: EC50 rat L6 cell / EC50 P. falciparum K1
Procedure: Plasmodium Falciparum K1 strain was used as a chloroquine-resistant protozoa of falciparum malaria. RMI-1640 sterilized by filtration was supplemented with human serum of a final concentration of 5% to be used as a culture medium. The malaria protozoa were cultured under O2 concentration of 3%, CO2 concentration of 4%, N2 concentration of 93% at 37° C.
A test sample was prepared by dissolving the test compounds according to the present invention and a positive control drug (chloroquine) in DMSO to a predetermined concentration. […]
After culture for 48 hours at 37° C., hypoxanthine labeled with radioactive tritium (^3H) of 0.5 μCi was added to each well. […] Intensity of radiation was measured by means of plate liquid scintillation counter (Wallac Co.), and an infection ratio of the protozoa of malaria was calculated with respect to a group treated with the test sample and the control. […]
Anti-malaria effect of the samples was assessed by their EC50 values for the chloroquine-resistant protozoa of falciparum malaria and the rat L6 cell. A chemotherapy coefficient, which is used as an index for the selective toxicity for the chloroquine-resistant protozoa of falciparum malaria was calculated by the following equation, and the pharmaceutical effect was determined. […]

[2] = system: Trypanosoma brucei rhodensiense (STIB 900 strain); assay: in vitro growth-inhibiting screening assay, protozoa of African trypanosomiasis; conditions: EC50 rat L6 cell / EC50 protozoa of African trypanosomiasis
Procedure: This test was done using a trypomastigote of the protozoa of Trypanosoma brucei rhodensiense (STIB 900 strain) ranging in blood stream. MEM medium sterilized by filtration was supplemented with 25 mM of N-2-hydroxyethylpiperazine-2-ethanesulfonic acid (HEPES), 1 g/L of glucose, 1% of MEM non-essential amino acids, 0.2 mM of 2-mercaptoethanol, 2 mM of sodium pyruvate, 1 mM of hypoxathine and 15% of heat-treated horse serum. The protozoa were cultured under CO2 concentration of 5%, at 37° C.
A test sample was prepared by dissolving the test compounds according to the present invention and a positive control drug (Melarsoprol) in DMSO to a predetermined concentration. […]
(§1) After incubation of the culture plate for 72 hours in an incubator, a growth-inhibiting activity was assayed as follows. […] The culture plate was then attached to a fluorescence micro titer plate reader (Spectramax Gemeni XS; U.S. Molecular Device Co.), the intensity of fluorescence at 588 nm was detected with excitation wave length of 536 nm to calculate an infection ratio of the protozoa with respect to a group treated with the test sample and a control group. […]
A selective toxicity coefficient, which is used as an index for the selective toxicity for the protozoa of African trypanosomiasis, was calculated by the following equation, and the pharmaceutical effect was determined. […]

[3] = system: Trypanosoma cruzi (Tulahuen C2C4 strain); assay: in vitro growth-inhibiting screening assay, protozoa of American trypanosomiasis; conditions: EC50 rat L6 cell / EC50 protozoa of American trypanosomiasis
Procedure: The test was done using a trypomastigote and an amastigote of the protozoa of Trypanosoma cruzi (Tulahuen C2C4 strain) present in the infected rat L6 cells. The L6 cells were cultured in RPMI-1640 medium supplemented with 1% of […] (200 mM) and 10% of fetal calf serum under CO2 concentration of 5%, at 37° C.
A test sample was prepared by dissolving the test compounds according to the present invention and a positive control drug (benznidazole) in DMSO to a predetermined concentration. Culture medium containing the protozoa of 5×10^3 was added into each well of 96-well culture plate and cultured for 48 hours. After the medium was exchanged, the test sample comprising the predetermined amount of the test compound, and DMSO without the test compound were added into each well in duplicate.
After incubation of the culture plate for 96 hours in an incubator, a growth-inhibiting activity was assayed as follows. CPRG/Nonidet (50 μL) was added to each well followed by a further 2˜6-hour culture. The culture plate was then attached to an absorption micro titer plate reader, the absorbance at 540 nm was detected to calculate an infection ratio of the protozoa with respect to a group treated with the test sample and a control group. A growth-inhibiting ratio was then calculated from the resulting infection ratio in accordance with the following equation to determine 50% growth-inhibiting concentration (EC50).
Growth-inhibiting ratio (%)=[1−(b−a)/(c−a)]×100 • a: Initial infection ratio; • b: Infection ratio of the test sample group; and • c: Infection ratio of the control group.
A selective toxicity coefficient, which is used as an index for the selective toxicity for the protozoa of American trypanosomiasis, was calculated by the following equation, and the pharmaceutical effect was determined.
A selective toxicity coefficient=(EC50 value of the test sample for rat L6 cell)/(EC50 value of the test sample for the protozoa of American trypanosomiasis).

[4] = system: Leishmania donovani (MHOM/ET/67/L82 strain); assay: in vitro growth-inhibiting screening assay, protozoa of Leishmaniasis; conditions: EC50 rat L6 cell / EC50 protozoa of Leishmaniasis
Procedure: This test was done using the protozoa of Leishmania donovani (MHOM/ET/67/L82 strain). The protozoa were subcultured using Syrian Golden hamster and an amastigote was obtained therefrom. The amastigotes were cultured in SM medium supplemented with 10% of heat-treated fetal calf serum (pH 5.4) under CO2 concentration of 5%, at 37° C.
A test sample was prepared by dissolving the test compounds according to the present invention and a positive control drug (Miltefosine) in DMSO to a predetermined concentration. Culture medium containing a predetermined number of the protozoa was added into each well of a 96-well culture plate, and the concentration of the amastigotes was measured by means of CASY cell analysis system (Dermany, Scharfe Co.). Test sample comprising the predetermined amount of the test compound, and DMSO without the test compound were added to the wells in duplicate.
as §1, with “device” for “Device”, “trated” for “treated”

| Structure (SMILES) | Selective toxicity [1] | Selective toxicity [2] | Selective toxicity [3] | Selective toxicity [4] |
| --- | --- | --- | --- | --- |
| CCN(CC)c1ccc2nc3ccc(=[N+](CC)CC)cc-3oc2c1.[Cl-] [A-1 (60% purity)] | 860 | 22 | 27 | 1.4 |
| CCCC[N+](CCCC)=c1ccc2nc3ccc(N(C)C)cc3oc-2c1.[O-][Cl+3]([O-])([O-])[O-] [Compound A-7] |  |  | 19 |  |
| CN(C)c1ccc2nc3ccc(=[N+](C)C)cc-3oc2c1.CN(C)c1ccc2nc3ccc(=[N+](C)C)cc-3oc2c1.[Cl-].[Cl-].[Cl][Zn][Cl] [Compound A-3] |  |  | 19 |  |
| CCCC[N+](CCCC)=c1ccc2nc3ccc(N(CC)CC)cc3oc-2c1.[Cl-] [Compound A-6] |  |  | 35 |  |
| CCN(CC)c1ccc2nc3ccc(=[N+](CC)CC)cc-3oc2c1.[Cl-] [A-1 (>95% purity)] |  |  | 1400 |  |
